The values are deposited in ChEMBL (CHEMBL3988442, “University of Dundee, Small-Polar-MMV Screening Library” (2021)).

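Whole-cell growth test on Mycobacterium tuberculosis, read after 4 days in a medium based on cholesterol and the lipid DPPC; the read-out is not stated. Concentration: 500 µM. Higher reads as more growth inhibition (inferred: compounds with an IC50 in retests scored well above the rest). Of about 18,000 compounds tested this way, about 900 (5%) reached 50% or more in at least one test.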

Results are given as percent effect. The record does not define 0% and 100%; most values in the screen are far below 50% and negative numbers occur (in some assays of this library far below -100). This is an unselected part of the compounds tested.

Compound,Percent Effect
CCCN1CCC(NC(=O)c2ccc(O)cn2)C1 (centres unmarked),15.58%
CCOC(=O)CN(C)C(=O)c1ccc(=O)n(C)n1,-11.24%
Cc1ccc(C(=O)NCc2ccnc(N(C)C)c2)s1,52.07%
NS(=O)(=O)N(Cc1cccs1)C1CC1,11.52%
CCC(CO)CC(F)(F)F (centres unmarked),0.3746%
CC(C)c1cccc(S(=O)(=O)N(C)Cc2nnc[nH]2)c1,45.58%
CCC(CNS(=O)(=O)N(C)CC)c1ccccc1 (centres unmarked),63.87%
O=C(CNC(=O)c1cc(F)cc(F)c1)Nc1cnns1,-5.309%
NCc1ccccc1S(N)(=O)=O,-10.24%
CCS(=O)(=O)CCCN,-5.267%
NC(=O)C1CCN(C(=O)NCCc2ccccn2)CC1,0.796%
CN(C)CCOc1ccc(NS(C)(=O)=O)cc1,-3.19%
CN(C)C(CNC(=O)c1ccccn1)c1ccsc1 (centres unmarked),8.726%
CC(C)C(N)CCN(C)C(=O)CC(F)(F)F (centres unmarked),-18.41%
COC(C)(C)C(=O)Nc1nccc(C)n1,-19.97%
CC(C#N)Sc1nnc(-c2cccnc2)n1C (centres unmarked),12.72%
O=c1[nH]ccnc1N1CCCC(O)C1 (centres unmarked),0.5182%
O=S(=O)(NC1CCCNC1)c1ccccc1 (centres unmarked),-2.677%
Cc1ccc(C)c(OCC(O)CN2CCOCC2)c1 (centres unmarked),13.61%
CNc1ccc(N)nc1,-1123%
CC(NCc1cccc2c1OCCO2)c1ccncc1 (centres unmarked),45.62%
O=C(CN1CSCC1=O)NCCc1cccc(Cl)c1,-0.3723%
Cn1ccnc1CCNC(=O)CCN1CCCCC1=O,9.288%
CCOC1CCCN(CCC(N)=O)C1 (centres unmarked),7.277%
CC(NC(=O)CCc1ccc(O)cc1)c1cnn(C)c1 (centres unmarked),0.1406%
Cn1c(=O)oc2cc(CO)ccc21,-9.005%
NS(=O)(=O)N1CCN(CC=Cc2ccc(F)cc2)CC1,55.94%
NC1CCCN(CCS(=O)(=O)c2ccc(Br)cc2)C1 (centres unmarked),24.9%
CN1CC=C(CCN)CC1,-4.108%
CC(Cn1ccnc1)NC(=O)NCc1cccnc1 (centres unmarked),0.9436%
CN(CC1(C)CCOCC1)C(=O)c1ccco1,14.7%
Cc1nn(C)c(N(C)C)c1CNCCc1cnn(C)c1,-8.881%
Cc1c(C(=O)N2CCCC2)cnn1-c1ccc(F)cc1,-5.827%
COc1ccc(-c2nnn(CCO)n2)cc1OC,7.347%
CSc1cccc(F)c1CN,-3.16%
CCC(CC)NCCO,-3.527%
COc1ccc(CN(C)CCNS(C)(=O)=O)c(Cl)c1,7.956%
Cc1ccccc1C1(O)CCNC1 (centres unmarked),1.449%
NCC1(NC(=O)c2n[nH]c3c2CCC3)CCCC1,15.04%
CSCCC(NC(N)=O)C(=O)Nc1cccc(F)c1 (centres unmarked),-4.457%
CN1CCC(NC(=O)C2=NN(C)C(=O)CC2)C1 (centres unmarked),12.48%
NC(=O)CC1C(=O)NCCN1CCCc1ccccc1 (centres unmarked),0.308%
O=C1Nc2ccccc2C12CCNC2 (centres unmarked),-6.903%
COc1ccc(C(CN)CO)cc1 (centres unmarked),4.295%
Cc1noc(C)c1C(=O)N(C)C1CCS(=O)(=O)C1 (centres unmarked),-0.6569%
CCOc1ccc(C(=O)n2cnnc2N)cc1,9.363%
CN(CCn1cccn1)C(=O)c1ccc(CN)cc1,-2.109%
NC(=O)C(N)c1ccc2c(c1)OCCO2 (centres unmarked),63.41%
O=S(=O)(CC(O)CO)C1Cc2ccccc2C1 (centres unmarked),-2.193%
CNCc1ncnn1C,-1.455%
N#Cc1cc(C#N)c(SCCN2CCCCC2)nc1N,0.6719%
CN(CCC(=O)Nc1ccccc1)CC(=O)N(C)C,-5.839%
Cc1ncsc1CNC(=O)N[C@H](CO)c1ccccc1,3.989%
O=C(CCc1nc(-c2ccncc2)no1)NC1CC1,-16.94%
NCC(NC(=O)c1ccccc1C(F)(F)F)C1CC1 (centres unmarked),-16.07%
COC(C)(C)C(=O)CSc1cc(C#N)ccn1,-7.534%

The first 5 entries again:

Compound,Percent Effect
CCCN1CCC(NC(=O)c2ccc(O)cn2)C1 (centres unmarked),15.58%
CCOC(=O)CN(C)C(=O)c1ccc(=O)n(C)n1,-11.24%
Cc1ccc(C(=O)NCc2ccnc(N(C)C)c2)s1,52.07%
NS(=O)(=O)N(Cc1cccs1)C1CC1,11.52%
CCC(CO)CC(F)(F)F (centres unmarked),0.3746%